# Results of single-concentration screens

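Phenotypic screen: M. tuberculosis growth, cholesterol and DPPC medium, 4 days; the read-out is not stated. Tested at 50 µM. The record gives no direction; compounds that gave an IC50 in retests scored well above the rest, so higher reads as more growth inhibition. Size under these conditions: about 69,000 compounds, about 370 of them at 50% or above in at least one test.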

The filed quantity is “Percent Effect” (%).
How 0% and 100% were set is not recorded. Most values in the screen are low, and negative values occur.
The compounds are a random part of those screened.
Two or more numbers in one place are separate tests of the same structure; such repeats can differ widely.

| # | SMILES | effect |
|---|---|---|
| 1 | `O=C(NCCOc1cccc(Cl)c1Cl)N1CCC2(CC1)OCCO2` | 17.14% |
| 2 | `O=C1NCCN1CCNc1cc(-c2ccccc2)nc2ccnn12` | -3.178% |
| 3 | `Cc1noc(Cl)c1CC(=O)N1CCCC1Cn1cccn1` (stereo not given) | -0.4148% |
| 4 | `Cc1ccccc1OCCN(C)C(=O)NC(C)c1nncn1C` (stereo not given) | -0.08432% |
| 5 | `COc1ccc2cc(-c3n[nH]cc3CN3CCSCC3)ccc2c1` | -6.001% |
| 6 | `CC(C(=O)N1CCN(c2ccc(F)cc2)CC1)n1cc(Br)cn1` (stereo not given) | 0.242% |
| 7 | `Cc1ccnn1CCC(=O)N1CCC(c2cnccn2)CC1` | -2.607% |
| 8 | `Cc1cc(CN2CCC(CNC(=O)c3ccc(O)c(Cl)c3)C2)[nH]n1` (stereo not given) | 3.39% |
| 9 | `CC(=O)NCCc1ccc(S(=O)(=O)N(C)C(C)C(C)(C)C)s1` (stereo not given) | -31.13% |
| 10 | `Cc1cc(C)n(CC2CCCN2Cc2ncc(C(C)(C)C)o2)n1` (stereo not given) | -8.747% |
| 11 | `COc1ccccc1CN1C[C@@H](F)[C@@H](OCc2nc3cnccc3[nH]2)C1` | -13.14% |
| 12 | `CCOC(C)c1noc(CN(C)C(=O)c2ccncc2)n1` (stereo not given) | 15.52% |
| 13 | `CCO[C@@H]1CO[C@@]2(CCCN(S(=O)(=O)c3cccnc3)C2)C1.O=C(O)C(F)(F)F` | -34.69% |
| 14 | `N#Cc1cccc(N2CCC3(CCC(=O)N(CC(N)=O)C3)CC2)n1` | 13.21% |
| 15 | `COc1nccc(N2CC[C@@H](N3CCCCCC3)[C@H](O)C2)c1C#N` | 4.341% |
| 16 | `CC(=O)N1CCC2(CC1)COCCN2Cc1ccc(F)cc1.O=C(O)C(F)(F)F` | -27% |
| 17 | `CC(=O)Nc1ccc2c(c1)C1(CCOCC1)C(=O)N2c1ccsc1` | -23.14% |
| 18 | `Cc1cccc(-c2noc(CN3CCCC3Cn3cncn3)n2)c1` (stereo not given) | 10.01% |
| 19 | `O=C(NCc1ccncc1)c1nc2c(o1)CN(C(=O)c1cccnc1)C2.O=C(O)C(F)(F)F.O=C(O)C(F)(F)F` | -17.73% |
| 20 | `CC(NC(=O)CCCOc1ccc(F)cc1)c1nnc2n1CCC2` (stereo not given) | -34.81% |
| 21 | `Cc1ccoc1C(=O)N1CCCC(c2cc(C(F)(F)F)[nH]n2)C1` (stereo not given) | -1.859% |
| 22 | `[H][C@@]12CN(c3ccc(C)nn3)C[C@@H](C(=O)NC3CCCC3)[C@]1([H])CCO2` | -9.421% |
| 23 | `O=C1CC(c2ccncc2)c2c(c(C(=O)O)cn2-c2ccccc2)N1` (stereo not given) | 5.512% |
| 24 | `CC(=O)N1CCCC1c1cccc(C)c1C` (stereo not given) | 0.8973% |
| 25 | `CNc1nc(C(=O)N2CCCC(CO)(CCCOC)C2)cs1` (stereo not given) | -9.372% |
| 26 | `CCOCCCn1c(NC(=O)c2ccnc(C)n2)nc2ccccc21` | -27.96% |
| 27 | `O=C(O)C(F)(F)F.O=C(O)C(F)(F)F.O=C(O)C(F)(F)F.[H][C@@]12CN(Cc3ccncc3)C[C@]1([H])OCCN2c1ccc(C)nn1` | -11.45% |
| 28 | `CC1(Cc2ccc3c(c2)OCO3)CCCN(S(=O)(=O)N2CCOCC2)C1` (stereo not given) | 5.991% & -1.434% |
| 29 | `COc1ccc(CNC(=O)CCc2nnc3ccccn3c2=O)cc1` | -6.396% |
| 30 | `CS(=O)(=O)Cc1nc(CN2CC=C(c3ccccc3)CC2)cs1` | 11.48% |
| 31 | `CNc1nc(N2C[C@H](NC(=O)CCOC)[C@@H](C3CC3)C2)nc2c1CCC2` | 5.293% |
| 32 | `O=C(Nc1nccs1)C1CCN(Cc2cccc3c2OCCO3)CC1` | -13.89% |
| 33 | `Cn1nc(C(=O)NCc2ccc(F)cc2)c2c1CCS(=O)(=O)C2` | 4.729% |
| 34 | `Cc1nc(CNC(=O)c2oc3ccccc3c2CN(C)C)oc1C` | -3.005% & -184.2% |
| 35 | `Cn1nc(COc2cccnc2)c2c1CCN(Cc1ccco1)C2.O=C(O)C(F)(F)F.O=C(O)C(F)(F)F` | -21.16% |
| 36 | `[H][C@@]12COC[C@@H](Cc3nc(C)no3)[C@]1([H])CN(S(=O)(=O)CC)C2` | 12.4% |
| 37 | `CCn1nccc1C(=O)Nc1nc(C)c(C(C)=O)s1` | 7.185% |
| 38 | `O=C1N(CCCc2ccccc2)CCCC1(O)CNCc1ccccc1` (stereo not given) | 8.39% |
| 39 | `c1cc2occc2c(N2CCCC(c3nncn3C3CC3)C2)n1` (stereo not given) | -12.06% |
| 40 | `CC(=O)Nc1ccsc1C(=O)Nc1cnc2n1CCCC2` | -6.307% |
| 41 | `CC(C)Nc1ncnc2c1CCN(C(=O)c1ccc[nH]1)CC2` | -13.96% |
| 42 | `O=C(O)C(F)(F)F.O=C(O)C(F)(F)F.O=C(O)C(F)(F)F.[H][C@@]12C[C@@H](Oc3cncnc3)CN1CCN(Cc1ccncc1)C2` | -7.29% |
| 43 | `CCc1noc(CN2CCN(Cc3cccs3)CC2)n1` | 11.32% |
| 44 | `COCCO[C@H]1COCCN(Cc2ccc(OC)cc2)C1` | -6.836% |
| 45 | `c1nc2n(c1CN1CCCC1)CCN(C1CCOCC1)CC2` | -10.9% |
| 46 | `CCC1CN(CC(=O)Nc2sccc2C#N)CCO1` (stereo not given) | -1.264% |
| 47 | `Cc1ccc(CN2C(=O)CC[C@]23CC[C@@H](NCC2CCOC2)CC3)cc1.O=C(O)C(F)(F)F` (stereo not given in full) | -15.81% |
| 48 | `COc1cccc(CN2CCN(C(=O)CN3CCOCC3)CC2)n1` | -2.674% |
| 49 | `O=C(CCc1nccs1)N1CCN(c2ncccn2)CC1` | -0.06353% |
| 50 | `Cc1cc(C)n2ncc(CN3C[C@@H](O)[C@H](Oc4ccccc4)C3)c2n1` | -3.751% |
| 51 | `COc1ccc2c(c1)CC(NCc1cccc(CO)c1)CC2` (stereo not given) | -0.7541% |
| 52 | `O=C(O)C(F)(F)F.O=C(O)C(F)(F)F.[H][C@]12C[C@@H](Cn3cncn3)N(C(C)=O)[C@@]1([H])CCN(Cc1ccccn1)C2` | -22.12% |
| 53 | `CSc1cc2c(cc1NC(=O)NCc1ccncc1)OCCO2` | -19.76% |
| 54 | `CCC1CCCCN1C(=O)CCn1cnc2sccc2c1=O` (stereo not given) | -3.684% |
| 55 | `CCCS(=O)(=O)c1ncc(CN2CCC(CO)CC2)n1CC1CCCO1` (stereo not given) | 5.028% |
| 56 | `[H][C@]12CCN(C(=O)CC(C)C)CC[C@@]1([H])S(=O)(=O)CCN2S(C)(=O)=O` | 4.887% & -3.65% |
| 57 | `O=C(O)C(F)(F)F.O=C(O)C(F)(F)F.[H][C@@]12CCN(Cc3nccs3)C[C@]1([H])O[C@@H](C(=O)Nc1cccnc1)C2` | -27.83% |
| 58 | `[H][C@@]12CC(=O)N(Cc3ccncc3)[C@@]1([H])CCN2Cc1cnn(C)c1` | -14.32% & 11.33% |
| 59 | `c1ccc(NCc2cccc(OCCN3CCOCC3)c2)nc1` | -2.075% |
| 60 | `CS(=O)(=O)N1CCN(CC(=O)Nc2cccc(Cl)c2)CC1` | -15.33% |
| 61 | `c1cc(-c2cn[nH]c2)ccc1CN1CCCCC1` | -11.57% |
| 62 | `[H][C@@]12C[C@H](C(=O)Nc3cccnc3)[C@@]([H])(CN(Cc3ccc(F)cc3)C1)O2` | 4.034% & 21.97% |
| 63 | `Nc1nc(N2CCCCCC2)ncc1C(=O)NCc1ccc(F)c(Cl)c1` | 10.93% |
| 64 | `Cc1csc2c(N3CCNC(C(=O)N4CCCC4)C3)ncnc12` (stereo not given) | -0.1274% |
| 65 | `N#Cc1ccc(S(=O)(=O)Nc2ccc(N3CCOCC3)cn2)cc1` | -3.454% |
| 66 | `Cc1c(CCC(=O)Nc2ccc(Cl)cn2)cnn1C` | 10.24% |
| 67 | `CC(C)NC(=O)N1CCCC(c2nnc(CN3CCOCC3)n2C)C1` (stereo not given) | -20.91% |
| 68 | `Cc1cccn2cc(CNS(=O)(=O)N3CCOCC3)nc12` | -10.77% |

Measurements from “University of Dundee, Small-Polar-MMV Screening Library” (2021), ChEMBL document CHEMBL3988442.